Some results were stated once for a whole list of compounds, not compound by compound.
Tested on: mice
Experiment: Collagen-epinephrine induced pulmonary thromboembolism in mice
Assay type: in vivo
Conditions: 30 M/Kg as printed, p.o., time dependent study
Description: To assess the antithrombotic efficacy of Compounds, mice were divided into vehicle, aspirin and Compounds treated groups, and each group included ten animals. […] Results have been reported as percentage protection, which represents protection against collagen and epinephrine induced thrombosis and expressed as: Percent Protection=(1-([…]-number of animals paralyzed/dead in test compound-treated group; Pcontrol-number of animals paralyzed/dead in vehicle treated group. Collagen Epinephrine Induced Pulmonary Thromboembolism (FIG. 1): […]

| Compound | duration of antithrombotic efficacy [h] |
| --- | --- |
| Cc1ccc(CN2C(=O)CC[C@H]2C(=O)N2CCCC(CNC(=O)OC(C)(C)C)C2)cc1 (some centres unmarked) [Compound 1, 1-(4-methylphenylmethyl)-5-oxo-{N-[(3-t-butoxycarbonyl-aminomethyl)]-piperidin-1-yl}-pyrrolidine-2-carboxamides] | ≤ 12 |
| Cc1ccc(CN2C(=O)CC[C@H]2C(=O)N2CCC[C@H](CNC(=O)OC(C)(C)C)C2)cc1 [Compound 7, (2S)-1-(4-methylphenylmethyl)-5-oxo-(3R)-{N-[(3-t-butoxycarbonyl-aminomethyl)]-piperidin-1-yl}-pyrrolidine-2-carboxamide] | ≤ 12 |

— patent US9687480B2, “Chiral 1-(4-methylphenylmethyl)-5-oxo-{N-[(3-t-butoxycarbonyl-aminomethyl)]-piperidin-1-yl)-pyrrolidine as inhibitors of collagen induced platelet activation and adhesion” (Council of Scientific & Industrial Research, priority 2011, dated 2017)
